Positions count from the first letter of the chain named. These are yes or no findings as the source states them, for the method shown. Binding seen in cells or lysates may run through a third protein. Some binding calls cover weakened binding; strength is not graded here. Sequences can lack the tags named with a protein.
How the values were obtained:
[1] = molecular target: T1, HA-DRG1 I260R (human) (UniProt Q9Y295); assay: co-IP
T1 sequence: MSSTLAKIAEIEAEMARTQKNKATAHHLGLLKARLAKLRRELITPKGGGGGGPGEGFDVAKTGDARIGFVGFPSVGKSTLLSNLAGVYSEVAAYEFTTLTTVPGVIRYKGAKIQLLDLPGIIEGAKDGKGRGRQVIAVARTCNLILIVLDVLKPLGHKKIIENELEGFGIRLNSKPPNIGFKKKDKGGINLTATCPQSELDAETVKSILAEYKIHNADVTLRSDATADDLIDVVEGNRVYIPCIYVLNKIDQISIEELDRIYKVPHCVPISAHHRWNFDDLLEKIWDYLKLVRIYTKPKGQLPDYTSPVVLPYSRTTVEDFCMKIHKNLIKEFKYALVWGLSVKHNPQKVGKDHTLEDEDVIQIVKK

[2] = molecular target: T2, HA-DRG1 L155E + I260R + V264K (human) (UniProt Q9Y295); assay: co-IP
T2 sequence: T1 sequence with L155E, V264K

- binding [1]: no binding
- binding [2]: binds weakly
B1: DRG family regulatory protein 2 (DFRP2), endogenous (protein, UniProt Q9H446 1-243)
chain: MTDYGEEQRNELEALESIYPDSFTVLSENPPSFTITVTSEAGENDETVQTTLKFTYSEKYPDEAPLYEIFSQENLEDNDVSDILKLLALQAEENLGMVMIFTLVTAVQEKLNEIVDQIKTRREEEKKQKEKEAEEAEKQLFHGTPVTIENFLNWKAKFDAELLEIKKKRMKEEEQAGKNKLSGKQLFETDHNLDTSDIQFLEDAGNNVEVDESLFQEMDDLELEDDEDDPDYNPADPESDSAD

— paper doi:10.1101/2023.05.31.543024
